According to paper PMC10465527:
Changes are numbered by the printed parent chain. Like-named read-outs stand apart in the source and are kept apart here. Results are given in words; binding and its absence hold for the method and conditions named. Binding seen in cells or lysates may run through a third protein. Some entries that bind do so weakly or less than the wild type. For part of these data: Tags and fused reporters may be left off the sequences shown.

By UniProt entry, the sequences of proteins in these tests, tags left out.
UniProt P30153: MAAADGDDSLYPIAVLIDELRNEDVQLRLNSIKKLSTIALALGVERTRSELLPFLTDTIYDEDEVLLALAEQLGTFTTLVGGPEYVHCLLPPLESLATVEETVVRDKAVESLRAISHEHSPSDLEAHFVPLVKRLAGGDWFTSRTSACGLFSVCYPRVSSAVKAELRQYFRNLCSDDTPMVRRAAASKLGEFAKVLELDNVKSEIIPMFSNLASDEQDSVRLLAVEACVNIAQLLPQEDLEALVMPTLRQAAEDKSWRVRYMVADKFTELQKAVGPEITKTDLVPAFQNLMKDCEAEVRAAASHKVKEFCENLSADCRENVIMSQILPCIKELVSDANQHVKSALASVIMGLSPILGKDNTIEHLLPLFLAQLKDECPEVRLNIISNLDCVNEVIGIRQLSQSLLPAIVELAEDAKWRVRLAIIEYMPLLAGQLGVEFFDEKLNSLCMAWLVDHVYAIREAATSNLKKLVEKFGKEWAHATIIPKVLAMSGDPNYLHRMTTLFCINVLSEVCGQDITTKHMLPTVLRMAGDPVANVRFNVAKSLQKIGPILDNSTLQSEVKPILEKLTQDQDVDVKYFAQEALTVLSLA
UniProt Q15172: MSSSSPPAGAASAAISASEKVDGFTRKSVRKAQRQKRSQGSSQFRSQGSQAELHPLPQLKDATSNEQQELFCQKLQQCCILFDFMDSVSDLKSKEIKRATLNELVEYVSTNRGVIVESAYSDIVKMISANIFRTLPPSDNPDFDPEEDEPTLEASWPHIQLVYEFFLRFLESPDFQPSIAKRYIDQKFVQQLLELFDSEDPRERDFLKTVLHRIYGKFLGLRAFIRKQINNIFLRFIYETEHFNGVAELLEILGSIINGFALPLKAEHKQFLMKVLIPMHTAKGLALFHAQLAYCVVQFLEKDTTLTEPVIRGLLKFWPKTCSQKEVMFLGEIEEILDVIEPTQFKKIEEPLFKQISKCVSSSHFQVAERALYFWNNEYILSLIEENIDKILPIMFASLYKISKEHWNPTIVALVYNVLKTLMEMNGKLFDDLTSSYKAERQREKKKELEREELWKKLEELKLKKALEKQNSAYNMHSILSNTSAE
UniProt Q969H0: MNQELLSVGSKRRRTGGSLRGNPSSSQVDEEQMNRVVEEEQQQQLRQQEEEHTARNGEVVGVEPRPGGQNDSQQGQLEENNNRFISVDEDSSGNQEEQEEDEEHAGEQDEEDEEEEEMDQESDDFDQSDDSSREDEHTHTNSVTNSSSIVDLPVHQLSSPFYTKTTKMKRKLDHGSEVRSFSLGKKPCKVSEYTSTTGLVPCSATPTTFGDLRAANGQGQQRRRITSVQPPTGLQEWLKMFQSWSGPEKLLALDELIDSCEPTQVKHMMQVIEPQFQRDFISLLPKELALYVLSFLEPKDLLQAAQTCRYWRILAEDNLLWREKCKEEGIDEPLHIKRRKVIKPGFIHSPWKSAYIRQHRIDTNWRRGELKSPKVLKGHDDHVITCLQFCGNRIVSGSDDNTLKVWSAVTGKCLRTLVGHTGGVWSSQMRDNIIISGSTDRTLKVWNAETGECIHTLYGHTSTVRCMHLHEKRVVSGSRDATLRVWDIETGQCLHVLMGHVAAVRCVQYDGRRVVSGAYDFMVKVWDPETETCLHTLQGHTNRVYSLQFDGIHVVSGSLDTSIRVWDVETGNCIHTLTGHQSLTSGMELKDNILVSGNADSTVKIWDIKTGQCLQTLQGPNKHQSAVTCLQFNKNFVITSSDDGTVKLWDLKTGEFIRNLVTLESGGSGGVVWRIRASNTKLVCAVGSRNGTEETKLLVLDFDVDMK
UniProt Q9Y297: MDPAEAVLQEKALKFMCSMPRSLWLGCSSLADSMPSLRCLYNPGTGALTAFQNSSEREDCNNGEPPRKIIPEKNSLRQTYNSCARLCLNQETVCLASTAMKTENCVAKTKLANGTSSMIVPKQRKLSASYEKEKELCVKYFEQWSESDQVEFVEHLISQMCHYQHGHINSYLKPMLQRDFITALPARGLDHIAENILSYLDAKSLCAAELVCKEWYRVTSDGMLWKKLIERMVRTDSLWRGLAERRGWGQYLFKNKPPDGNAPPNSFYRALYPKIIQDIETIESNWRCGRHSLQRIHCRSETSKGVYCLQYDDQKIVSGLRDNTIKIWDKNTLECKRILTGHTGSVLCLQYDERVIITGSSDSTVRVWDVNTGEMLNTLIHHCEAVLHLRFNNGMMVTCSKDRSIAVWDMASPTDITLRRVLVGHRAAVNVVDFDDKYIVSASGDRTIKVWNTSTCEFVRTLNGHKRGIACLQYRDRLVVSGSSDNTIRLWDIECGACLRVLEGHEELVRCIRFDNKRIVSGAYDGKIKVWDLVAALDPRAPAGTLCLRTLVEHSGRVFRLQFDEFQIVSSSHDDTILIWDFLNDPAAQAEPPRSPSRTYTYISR
UniProt P23443: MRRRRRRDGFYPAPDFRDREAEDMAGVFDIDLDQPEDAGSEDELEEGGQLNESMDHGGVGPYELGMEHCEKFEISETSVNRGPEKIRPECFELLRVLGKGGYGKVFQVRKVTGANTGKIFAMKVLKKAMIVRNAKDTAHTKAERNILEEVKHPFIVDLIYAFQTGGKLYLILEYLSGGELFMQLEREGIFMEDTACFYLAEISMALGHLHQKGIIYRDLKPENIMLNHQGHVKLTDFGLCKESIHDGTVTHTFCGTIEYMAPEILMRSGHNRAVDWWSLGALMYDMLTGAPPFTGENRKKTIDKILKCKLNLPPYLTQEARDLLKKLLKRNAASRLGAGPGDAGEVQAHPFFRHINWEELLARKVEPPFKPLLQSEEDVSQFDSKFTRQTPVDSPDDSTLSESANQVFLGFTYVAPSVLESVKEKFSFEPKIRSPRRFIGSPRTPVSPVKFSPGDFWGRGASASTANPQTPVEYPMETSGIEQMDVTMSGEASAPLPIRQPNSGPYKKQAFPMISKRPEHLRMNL
UniProt Q15648: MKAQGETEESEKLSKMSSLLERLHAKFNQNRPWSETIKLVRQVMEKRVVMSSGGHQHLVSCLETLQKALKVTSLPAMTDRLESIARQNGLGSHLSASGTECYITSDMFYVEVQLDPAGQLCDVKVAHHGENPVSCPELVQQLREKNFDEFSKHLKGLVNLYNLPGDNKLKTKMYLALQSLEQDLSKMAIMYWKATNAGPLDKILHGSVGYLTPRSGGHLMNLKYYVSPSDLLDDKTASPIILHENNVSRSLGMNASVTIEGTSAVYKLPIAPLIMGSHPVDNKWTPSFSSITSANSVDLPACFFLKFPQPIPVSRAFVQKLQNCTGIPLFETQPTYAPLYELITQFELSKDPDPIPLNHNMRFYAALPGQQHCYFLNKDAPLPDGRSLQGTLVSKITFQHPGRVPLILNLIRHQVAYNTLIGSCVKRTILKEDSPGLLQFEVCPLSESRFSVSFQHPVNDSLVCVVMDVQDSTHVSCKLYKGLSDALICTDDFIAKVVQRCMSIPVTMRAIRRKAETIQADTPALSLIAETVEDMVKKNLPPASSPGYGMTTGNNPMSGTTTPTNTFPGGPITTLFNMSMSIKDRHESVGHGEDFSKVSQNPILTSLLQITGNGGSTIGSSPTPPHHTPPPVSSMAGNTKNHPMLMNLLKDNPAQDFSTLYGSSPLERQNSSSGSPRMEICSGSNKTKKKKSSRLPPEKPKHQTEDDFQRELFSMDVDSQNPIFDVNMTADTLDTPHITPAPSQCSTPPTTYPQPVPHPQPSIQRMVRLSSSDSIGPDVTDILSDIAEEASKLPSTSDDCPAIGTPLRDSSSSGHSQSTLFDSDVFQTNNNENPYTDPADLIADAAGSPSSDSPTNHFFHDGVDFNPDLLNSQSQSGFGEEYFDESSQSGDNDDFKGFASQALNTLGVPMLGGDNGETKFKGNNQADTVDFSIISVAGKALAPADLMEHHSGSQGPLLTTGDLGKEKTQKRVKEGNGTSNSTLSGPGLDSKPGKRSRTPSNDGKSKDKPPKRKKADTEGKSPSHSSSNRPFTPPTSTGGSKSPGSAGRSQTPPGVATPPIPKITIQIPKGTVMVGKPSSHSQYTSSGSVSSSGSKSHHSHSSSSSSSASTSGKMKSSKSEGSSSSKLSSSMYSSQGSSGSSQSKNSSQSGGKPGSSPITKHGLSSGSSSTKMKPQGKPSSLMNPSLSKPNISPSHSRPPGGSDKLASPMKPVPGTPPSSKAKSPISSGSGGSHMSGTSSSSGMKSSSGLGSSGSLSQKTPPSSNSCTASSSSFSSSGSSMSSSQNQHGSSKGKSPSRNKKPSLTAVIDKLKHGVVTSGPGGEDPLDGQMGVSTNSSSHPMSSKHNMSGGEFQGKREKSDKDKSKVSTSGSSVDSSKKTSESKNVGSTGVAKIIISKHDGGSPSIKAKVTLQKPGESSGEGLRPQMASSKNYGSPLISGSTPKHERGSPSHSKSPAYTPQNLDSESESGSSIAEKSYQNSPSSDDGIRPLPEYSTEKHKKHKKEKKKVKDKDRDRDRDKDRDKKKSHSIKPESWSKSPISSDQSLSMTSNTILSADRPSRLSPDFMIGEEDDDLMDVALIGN

Columns and labels:
V5-PP2A-Aα [1] = target: V5-PP2A-Aα (UniProt P30153); test: co-IP; V5 antibody coupled to Dynabeads, 30 min at 4 °C with lysates of LNCaP shNTC or shLCMT1 cells with V5-PP2A-Aα; EGFP as negative IP control; immunoblot
[2] = target: V5-LCMT1 wild type (leucine carboxyl methyltransferase 1) (UniProt Q9UIC8); test: co-IP; reciprocal immunoprecipitation using FLAG-S6K1 and V5-LCMT1 (Supplementary Fig. 6g)
[3] = target: B56α expressed from V245 pCEP-4HA B56α (UniProt Q15172); test: co-IP; B56α antibody; lysates of HEK293-T cells co-transfected with B56α and HA-MED1 wild type or 2A mutants, 72 h post transfection; immunoblot
GST-B56α = GST-B56α (UniProt Q15172); test: pull-down; purified GST-B56α loaded on glutathione Sepharose beads, 2–3 mg nuclear protein lysate overnight at 4 °C, four washes with PBS; immunoblot; only the target purified
FLAG-tagged FBXW7 = FLAG-tagged FBXW7 (UniProt Q969H0); test: co-IP; anti-FLAG M2 beads, 2 h at 4 °C; NP40 buffer lysates of HEK293-T cells transfected with empty vector, FLAG-FBXW7 or FLAG-β-TrCP, treated with 5 μM MLN4924 for 6 h; immunoblot
FLAG-tagged β-TrCP = FLAG-tagged β-TrCP (UniProt Q9Y297); test: as above
[4] = target: FLAG-S6K1 (ribosomal protein S6 kinase 1) (UniProt P23443); test: co-IP; reciprocal immunoprecipitation using FLAG-S6K1 and V5-LCMT1 (Supplementary Fig. 6g)
V5-LCMT1 (S8/9/12A) = target: T1, V5-LCMT1 (S8/9/12A) (UniProt Q9UIC8); test: co-IP; anti-V5; lysates of HEK293-T cells transfected with V5-LCMT1 constructs, grown with 5 μM MLN4924 for 6 h (Fig. 5k) or serum-starved 24 h and stimulated with EGF for 6 h (Fig. 5l); immunoblot
T1 sequence: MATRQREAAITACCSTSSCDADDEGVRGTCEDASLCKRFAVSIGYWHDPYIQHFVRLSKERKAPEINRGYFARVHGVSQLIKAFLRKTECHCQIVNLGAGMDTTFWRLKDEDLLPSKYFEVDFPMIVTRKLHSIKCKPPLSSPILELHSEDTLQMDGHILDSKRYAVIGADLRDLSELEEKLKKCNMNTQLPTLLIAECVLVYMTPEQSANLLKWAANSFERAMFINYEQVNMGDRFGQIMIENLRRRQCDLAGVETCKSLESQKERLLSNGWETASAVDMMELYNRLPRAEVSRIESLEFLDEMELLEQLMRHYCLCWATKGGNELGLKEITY

V5-LCMT1 (S9A) = target: T2, V5-LCMT1 (S9A) (UniProt Q9UIC8); test: as above
T2 sequence: T1 sequence with A8S, A12S

V5-LCMT1 (S12A) = target: T3, V5-LCMT1 (S12A) (UniProt Q9UIC8); test: as above
T3 sequence: T1 sequence with A8S, A9S

V5-LCMT1 (S8A) = target: T4, V5-LCMT1 (S8A) (UniProt Q9UIC8); test: as above
T4 sequence: T1 sequence with A9S, A12S

[5] = target: V5-LCMT1 wild type (leucine carboxyl methyltransferase 1) (UniProt Q9UIC8); test: as above
V5-PP2A-Aα [6] = target: V5-PP2A-Aα (UniProt P30153); test: co-IP; V5 antibody coupled to Dynabeads, 30 min at 4 °C with lysates of LNCaP shNTC or shLCMT1 cells with V5-PP2A-Aα; EGFP as negative IP control; immunoblot; remark: listed apart in the source

## B56α regulatory subunit of PP2A (PPP2R5/B56 family) (from UniProt Q15172 1-486)
V5-PP2A-Aα [1]
  binding: binds

## FLAG-S6K1 (ribosomal protein S6 kinase 1) (from UniProt P23443 1-525) (enzyme)
[2]
  binding: binds

## HA-MED1 wild type (from UniProt Q15648 1-1581)
[3]
  binding: binds
GST-B56α
  binding: binds

## LCMT1 (endogenous) (from UniProt Q9UIC8 1-334) (enzyme)
FLAG-tagged FBXW7
  binding: no binding
FLAG-tagged β-TrCP
  binding: binds

## MED1 (endogenous) (from UniProt Q15648 1-1581)
GST-B56α
  binding: binds

## V5-LCMT1 wild type (leucine carboxyl methyltransferase 1) (from UniProt Q9UIC8 1-334) (enzyme)
[4]
  binding: binds

## β-TrCP (endogenous) (from UniProt Q9Y297 1-605)
V5-LCMT1 (S8/9/12A)
  binding: no binding
V5-LCMT1 (S9A)
  binding: no binding
V5-LCMT1 (S12A)
  binding: no binding
V5-LCMT1 (S8A)
  binding: no binding
[5]
  binding: binds

B1: PR130 regulatory subunit of PP2A (protein, UniProt Q06190-1 1-1150)
chain: MAATYRLVVSTVNHYSSVVIDRRFEQAIHYCTGTCHTFTHGIDCIVVHHSVCADLLHIPVSQFKDADLNSMFLPHENGLSSAEGDYPQQAFTGIPRVKRGSTFQNTYNLKDIAGEAISFASGKIKEFSFEKLKNSNHAAYRKGRKVKSDSFNRRSVDLDLLCGHYNNDGNAPSFGLLRSSSVEEKPLSHRNSLDTNLTSMFLQNFSEEDLVTQILEKHKIDNFSSGTDIKMCLDILLKCSEDLKKCTDIIKQCIKKKSGSSISEGSGNDTISSSETVYMNVMTRLASYLKKLPFEFMQSGNNEALDLTELISNMPSLQLTPFSPVFGTEQPPKYEDVVQLSASDSGRFQTIELQNDKPNSRKMDTVQSIPNNSTNSLYNLEVNDPRTLKAVQVQSQSLTMNPLENVSSDDLMETLYIEEESDGKKALDKGQKTENGPSHELLKVNEHRAEFPEHATHLKKCPTPMQNEIGKIFEKSFVNLPKEDCKSKVSKFEEGDQRDFTNSSSQEEIDKLLMDLESFSQKMETSLREPLAKGKNSNFLNSHSQLTGQTLVDLEPKSKVSSPIEKVSPSCLTRIIETNGHKIEEEDRALLLRILESIEDFAQELVECKSSRGSLSQEKEMMQILQETLTTSSQANLSVCRSPVGDKAKDTTSAVLIQQTPEVIKIQNKPEKKPGTPLPPPATSPSSPRPLSPVPHVNNVVNAPLSINIPRFYFPEGLPDTCSNHEQTLSRIETAFMDIEEQKADIYEMGKIAKVCGCPLYWKAPMFRAAGGEKTGFVTAQSFIAMWRKLLNNHHDDASKFICLLAKPNCSSLEQEDFIPLLQDVVDTHPGLTFLKDAPEFHSRYITTVIQRIFYTVNRSWSGKITSTEIRKSNFLQTLALLEEEEDINQITDYFSYEHFYVIYCKFWELDTDHDLYISQADLSRYNDQASSSRIIERIFSGAVTRGKTIQKEGRMSYADFVWFLISEEDKRNPTSIEYWFRCMDVDGDGVLSMYELEYFYEEQCERMEAMGIEPLPFHDLLCQMLDLVKPAVDGKITLRDLKRCRMAHIFYDTFFNLEKYLDHEQRDPFAVQKDVENDGPEPSDWDRFAAEEYETLVAEESAQAQFQEGFEDYETDEPASPSEFGNKSNKILSASLPEKCGKLQSVDEE
V5-PP2A-Aα [6]
  binding: binds

B2: STRN (Striatin) regulatory subunit of PP2A (protein, UniProt O43815 1-780)
chain: MDEQAGPGVFFSNNHPGAGGAKGLGPLAEAAAAGDGAAAAGAARAQYSLPGILHFLQHEWARFEVERAQWEVERAELQAQIAFLQGERKGQENLKKDLVRRIKMLEYALKQERAKYHKLKYGTELNQGDMKPPSYDSDEGNETEVQPQQNSQLMWKQGRQLLRQYLQEVGYTDTILDVKSKRVRALLGFSSDVTDREDDKNQDSVVNGTEAEVKETAMIAKSELTDSASVLDNFKFLESAAADFSDEDEDDDVDGREKSVIDTSTIVRKKALPDSGEDRDTKEALKEFDFLVTSEEGDNESRSAGDGTDWEKEDQCLMPEAWNVDQGVITKLKEQYKKERKGKKGVKRPNRSKLQDMLANLRDVDELPSLQPSVGSPSRPSSSRLPEHEINRADEVEALTFPPSSGKSFIMGADEALESELGLGELAGLTVANEADSLTYDIANNKDALRKTWNPKFTLRSHFDGIRALAFHPIEPVLITASEDHTLKMWNLQKTAPAKKSTSLDVEPIYTFRAHKGPVLCVVMSSNGEQCYSGGTDGLIQGWNTTNPNIDPYDSYDPSVLRGPLLGHTDAVWGLAYSAAHQRLLSCSADGTLRLWNTTEVAPALSVFNDTKELGIPASVDLVSSDPSHMVASFSKGYTSIFNMETQQRILTLESNVDTTANSSCQINRVISHPTLPISITAHEDRHIKFYDNNTGKLIHSMVAHLEAVTSLAVDPNGLYLMSGSHDCSIRLWNLESKTCIQEFTAHRKKFEESIHDVAFHPSKCYIASAGADALAKVFV
V5-PP2A-Aα [6]
  binding: binds
